PubChem BioAssay AID1508597 | Cure First | 2020

Purpose: 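Genes whose silencing sensitises or protects ovarian cancer cells against rucaparib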 (primary screen)
System: human ovarian carcinoma lines grown from tumours: OCI-P5x (papillary serous) and OCI-C5x (clear cell)
Reagent: siRNA pool against human genes, 1.25 pmol siRNA per well
Timing: 72 h or 96 h, depending on the cell culture
Challenge: rucaparib 20 µM (about IC30) or vehicle, present until read-out
Rucaparib or vehicle: Rucaparib
Cell line: OCI-C5x (clear cell)
Measured: 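Luminescent ATP-based viability assay read 72 or 96 h after transfection, depending on culture, given as normalised percent viability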
Direction: viability, normalised: higher = more viable cells remaining
Rule for the call: 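Active when normalised viability falls below 80 percent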
Meaning of the calls: active = viability under 80%; inactive = viability 80% or more
This is an unselected part of the about 2,100 reagents, in one setting of the screen. 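Calls flag viability under 80% in either arm, not effects specific to rucaparib; the reference for percent is not stated.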 A number with no mark means an inactive call. A reagent listed more than once was tested more than once; the source does not tell the runs apart. Not given: the 100% reference.

target gene | technical replicate | viability, normalised (%)
MGMT | 1 | 52.4 (active)
MGMT | 1 | 49.8 (active)
MGMT | 2 | 44.6 (active)
MGMT | 2 | 48.3 (active)
MGMT | 3 | 49.5 (active)
MGMT | 3 | 60.6 (active)
EPHB4 | 1 | 80
EPHB4 | 2 | 70.5 (active)
EPHB4 | 3 | 70.7 (active)
PWWP2B | 1 | 37.6 (active)
PWWP2B | 2 | 41 (active)
PWWP2B | 3 | 47.7 (active)
PDE6G | 1 | 65.2 (active)
PDE6G | 2 | 68.3 (active)
PDE6G | 3 | 70.3 (active)
DNAJC5 | 1 | 81.9
DNAJC5 | 2 | 68.6 (active)
DNAJC5 | 3 | 81.5
CDK3 | 1 | 50.6 (active)
CDK3 | 2 | 51.7 (active)
CDK3 | 3 | 56.6 (active)
PTPN9 | 1 | 49 (active)
PTPN9 | 2 | 37.9 (active)
PTPN9 | 3 | 56.8 (active)
MED10 | 1 | 61.3 (active)
MED10 | 2 | 54.4 (active)
MED10 | 3 | 58 (active)
RAB32 | 1 | 71.8 (active)
RAB32 | 2 | 50.3 (active)
RAB32 | 3 | 43.2 (active)
PARP11 | 1 | 40.1 (active)
PARP11 | 2 | 43.4 (active)
PARP11 | 3 | 33.5 (active)
ARID3B | 1 | 41.5 (active)
ARID3B | 2 | 50 (active)
ARID3B | 3 | 60.2 (active)

Reprinted from the entries so far for reference:
target gene | technical replicate | viability, normalised (%)
MGMT | 2 | 44.6 (active)
MGMT | 2 | 48.3 (active)
MGMT | 3 | 49.5 (active)
MGMT | 3 | 60.6 (active)
EPHB4 | 1 | 80
EPHB4 | 2 | 70.5 (active)
EPHB4 | 3 | 70.7 (active)

More records follow.
target gene | technical replicate | viability, normalised (%)
HDAC4 | 1 | 59.5 (active)
HDAC4 | 2 | 52.5 (active)
HDAC4 | 3 | 62.1 (active)
MTF2 | 1 | 39.7 (active)
MTF2 | 2 | 53.6 (active)
MTF2 | 3 | 57.2 (active)
MAT2A | 1 | 47.3 (active)
MAT2A | 2 | 34.4 (active)
MAT2A | 3 | 35.3 (active)
STING1 | 1 | 58 (active)
STING1 | 2 | 43.1 (active)
STING1 | 3 | 38.2 (active)
RINT1 | 1 | 55 (active)
RINT1 | 2 | 52.2 (active)
RINT1 | 3 | 54.6 (active)
PFKM | 1 | 49.6 (active)
PFKM | 2 | 60.4 (active)
PFKM | 3 | 54.1 (active)
SFN | 1 | 52.2 (active)
SFN | 2 | 38.8 (active)
SFN | 3 | 42.2 (active)
TRPM7 | 1 | 59.5 (active)
TRPM7 | 2 | 56.6 (active)
TRPM7 | 3 | 72.3 (active)
PLG | 1 | 50.2 (active)
PLG | 2 | 51.2 (active)
PLG | 3 | 35.5 (active)
MSH2 | 1 | 37.5 (active)
MSH2 | 1 | 50 (active)
MSH2 | 2 | 47.5 (active)
MSH2 | 2 | 39.6 (active)
MSH2 | 3 | 43.3 (active)
MSH2 | 3 | 47.8 (active)
MIP | 1 | 45.5 (active)
MIP | 2 | 50.9 (active)
MIP | 3 | 56.2 (active)
DYRK1A | 1 | 85.4
DYRK1A | 2 | 44 (active)
DYRK1A | 3 | 69.7 (active)
